Test results published in PubChem BioAssay AID1347075 (National Center for Advancing Translational Sciences (NCATS), 2019).
Out of some 400,000 compounds screened, about 5,500 (1.4%) were called active. Inconclusive results, whose numbers are uncertain, are shown with a selection of clear calls. Calls come from the whole dose curve; as a rule, active = well fitted cell-killing curve with a large enough effect; inconclusive = small, poorly fitted or top-dose-only effect, or effect the other way; inactive = flat fitted curve, though single readings scatter. Potencies of inconclusive entries are doubtful fits and often do not repeat.

assay: qHTS assay for MDR1-selective chemotherapeutics: Primary screen using the parental adenocarcinoma cell KB-3-1; settings: KB-3-1 viability, CellTiter-Glo ATP luminescence, 72 h; activity change, negative = cytotoxic: at 46.1 µM (top of the series); note: nearly all actives have a fitted effect of over 60% in size
Outline: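 Luminescent ATP read-out (CellTiter-Glo) measures survival of drug-naive KB-3-1 cells after 72 h compound exposure at 37 °C. Titration series was screened from lowest to highest concentration, with DMSO vehicle plates as background controls.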
% is set by controls: 0 for no effect and ±100 for the full control effect; potency is the fitted concentration of half-maximal effect.

Structure (SMILES)	Potency	activity change, negative = cytotoxic
COc1ccc(-c2cnc3c(NC=O)cc(-c4ccc(F)cc4)cn23)cc1OC	active: 0.206 µM	
Cc1c(NC(=O)c2cc(-n3cnnc3)ccc2Cl)cccc1-c1nc2ccccc2o1		inactive: -0.727%
Cc1ccc(C)c(S(=O)(=O)N2CCN(C(=O)CCc3nc4ccccc4c(=O)[nH]3)CC2)c1	inconclusive: 32.6 µM [rising, single point]	
CN(CC(=O)NC1CCCCCC1)S(=O)(=O)c1ccc2c(c1)n(C)c(=O)c(=O)n2C		inconclusive: 7.39%
C[C@H](CO)N1C[C@H](C)[C@@H](CN(C)S(=O)(=O)c2ccc(F)cc2)Oc2ccc(NS(=O)(=O)c3ccc(F)cc3)cc2C1=O		inactive: 6.69%
COC(=O)CSc1nc(N)c(NC(=O)c2ccc(OC)c(OC)c2)c(=O)[nH]1	inconclusive: 13 µM [rising, partial curve, poor fit]	
Cc1c(C(N)=O)sc2ncn(CC(=O)OC(C)C)c(=O)c12		inactive: 19.9%
COc1ccccc1NS(=O)(=O)c1cc(NC(=O)c2ccccc2)ccc1N1CCCC1		inactive: 8.8%
O=C(CSc1ccc2nnc(CCNC(=O)c3ccccc3)n2n1)NCc1ccco1	inconclusive: 14.6 µM [rising, single point]	
COc1ccc(Cl)cc1N1C(=O)/C(=C/c2sccc2C)N=C1SCC(=O)NC1CC1	inconclusive: 29.1 µM [cytotoxic, single point]	
CCOc1cc(O)c(-c2[nH]ncc2-c2nc(C)cs2)cc1CC	inconclusive: 0.651 µM [cytotoxic, partial curve, poor fit]	
O=C(CCCn1c(=O)c2ccccc2n(CC(=O)Nc2cccc(Cl)c2)c1=O)NCc1ccc2c(c1)OCO2		inactive: 18.5%
O=C(c1cccs1)N1CCN(C(=O)c2cccs2)C1=S	active: 14.6 µM	
COc1ccc(C(=O)NC(=S)Nc2ccc3oc(=O)ccc3c2)cc1[N+](=O)[O-]	inconclusive: 18.4 µM [rising, partial curve]	
O=C(NC(Cc1c[nH]c2ccccc12)C(=O)N/N=C/c1cccnc1)c1cccs1 (centres undefined)	inconclusive: 29.1 µM [cytotoxic, single point]	
COc1ccc(COc2cc(-c3cccc(OC)c3)nc3ccc(NC(=O)c4ccc(C)cc4)cc23)cc1	active: 9.2 µM	
CCOC(=O)[C@]12CCC=C1N(Cc1ccco1)C(=O)[C@H](CC(=O)NCc1ccc(OC)c(OC)c1)C2		inactive: 21.3%
O=C(Nc1ccc2c(c1)OCCO2)c1cccc(S(=O)(=O)N2CCCCC2)c1		inactive: 1.67%
Cc1ccc(N2CCN(C(C(=O)Nc3c(C)cccc3C)c3cccc(F)c3)CC2)cc1 (centres undefined)	inconclusive: 18.4 µM [cytotoxic, partial curve, poor fit]	
C/C(=N/NC(=O)CN(c1ccccc1)S(=O)(=O)c1ccccc1)c1ccccc1O	inconclusive: 29.1 µM [cytotoxic, single point]	
CCC(=O)Nc1ccccc1-c1nc2ccccc2n(C(C)C(=O)Nc2cccc(Cl)c2C)c1=O (centres undefined)	inconclusive: 32.6 µM [cytotoxic, single point]	
CCN(CC)S(=O)(=O)c1cccc(C(=O)NC(C)C(c2cccs2)N2CCCC2)c1 (centres undefined)		inactive: 2.89%

An excerpt of the results above, as a working copy:
Structure (SMILES)	Potency	activity change, negative = cytotoxic
COC(=O)CSc1nc(N)c(NC(=O)c2ccc(OC)c(OC)c2)c(=O)[nH]1	inconclusive: 13 µM [rising, partial curve, poor fit]	
Cc1c(C(N)=O)sc2ncn(CC(=O)OC(C)C)c(=O)c12		inactive: 19.9%

(cont.)

Structure (SMILES)	Potency	activity change, negative = cytotoxic
CC/C(=N\Nc1ccnc2cc(Cl)ccc12)c1ccc(O)cc1	inconclusive: 5.17 µM [cytotoxic, full curve]	
Cc1ccc(OCCNS(=O)(=O)c2ccc(N3CCCC3=O)cc2)cc1C	inconclusive: 23.1 µM [cytotoxic, partial curve, poor fit]	
COc1ccc(N(C)S(=O)(=O)c2ccc3c(c2)NC(=O)CC(=O)N3)c(OC)c1	inconclusive: 0.206 µM [rising, full curve]	
Clc1cccc[n+]1CCCCCC[n+]1ccccc1Cl		inactive: 0.356%
CCCCCCP(=O)(O)c1ccccc1		inactive: 17.9%
CN(C(=O)COC(=O)c1cccs1)c1ccccc1		inactive: -1.32%
CC1(C)Cc2c(C#N)c(NCC3CCCO3)nc(-c3ccco3)c2CO1 (centres undefined)	inconclusive: 29.1 µM [cytotoxic, single point]	
CCO[C@@H]1OC(C(=O)NCc2nc3ccccc3[nH]2)=C[C@H](c2csc3ccccc23)[C@H]1CCCO	inconclusive: 20.6 µM [cytotoxic, single point]	
COc1ccc(/C=C/c2cc(C(=O)O)c3ccccc3n2)cc1	inconclusive: 29.1 µM [cytotoxic, single point]	
CCOc1ccc(NC(=O)[C@H]2O[C@@H]3OC(C)(C)O[C@@H]3[C@H]3OC(C)(C)O[C@H]32)cc1	inconclusive: 16.4 µM [cytotoxic, partial curve, poor fit]	
CCc1cccc(NC(=O)c2cc(OC)c(OC)c(OC)c2)c1	inconclusive: 29.1 µM [rising, single point]	
O=C(CSc1nc2ccccc2o1)N1CCN(c2ccccc2)CC1	inconclusive: 0.0046 µM [rising, full curve]	
COc1cccc(C(=O)OC(C)C(=O)Nc2ccc3c(c2)OCO3)c1 (centres undefined)		inactive: -2.69%
O=C(Nc1cc(F)ccc1F)c1ccc(-n2cncn2)c([N+](=O)[O-])c1		inactive: -1.74%
Cc1ccccc1-n1ccnc1SCC(=O)NCc1ccco1		inactive: 0.137%
CCOc1ccccc1C(=O)Nc1cc(Cl)ccc1O	inconclusive: 16.4 µM [cytotoxic, single point]	
CCOC(=O)c1noc2ncnc(N3CCN(c4cccc(Cl)c4)CC3)c12	inconclusive: 20.6 µM [cytotoxic, partial curve, poor fit]	
COc1cc(NC(=O)CCNS(=O)(=O)c2cc(Br)cnc2N)cc(OC)c1		inactive: 0.311%
S=C(NCc1ccco1)Nc1cc(-c2ccccc2)[nH]n1	inconclusive: 29.1 µM [cytotoxic, single point]	
COc1ccc(N/C=C/C(=O)c2sc(-c3ccccc3)nc2C)cc1	inconclusive: 20.6 µM [cytotoxic, single point]	
CCn1cc(C(=O)N[C@H](C)c2ccccc2)c(=O)c2cc(F)c(N3CCN(C)CC3)cc21	inconclusive: 29.1 µM [cytotoxic, single point]	
S=C(NCc1ccco1)Nc1ccc(Cl)cc1Cl	inconclusive: 18.4 µM [cytotoxic, single point]	
